In the assay the test system is MOP (GIRK2 channel activation). The experiment in a line: GIRK channel membrane potential assay (G protein signaling). Conditions: single replicate values. In kind it is cell-based, mouse.

Values joined by “and” are separate entries in the source; they are usually repeats but may differ in a detail not shown here. Identical values can stand only once. The source gives many values for each of these; only a part stands here.

Consider `C[C@@H](NC(=O)[C@@H](N)Cc1ccc(O)cc1)C(=O)NCC(=O)N(C)[C@@H](Cc1ccccc1)C(=O)NCCO` [DAMGO, [D-Ala^2,N-MePhe^4,Gly-ol]-enkephalin], for which the “values normalised to 1µM DAMGO (individual values)” value runs as follows: (5nM ligand) 98.1543 and 95.9256 and 90.2745 and 88.4941 and 198.451 and 65.7134 and 94.0293 and 97.6782 and 99.0369 and 94.9994 and 82.4278 and 74.9003 and 75.9074 and 62.345 and 65.9984 and 92.7641; (10nM ligand) 99.7757 and 97.0173 and 100.232 and 82.718 and 90.4879 and 64.3239 and 93.1242 and 94.8055 and 95.5477 and 91.0532 and 187.536 and 89.7144 and 88.2056 and 53.8054 and 104.858 and 94.851; (50nM ligand) 98.7203 and 88.7015 and 94.997 and 106.546 and 97.9398 and 103.49 and 102.516 and 95.364 and 104.46 and 112.036 and 100.414 and 97.3935 and 93.9691 and 111.448 and 111.008 and 99.7765; (100nM ligand) 85.4659 and 92.6156 and 103.032 and 97.8778 and 100.113 and 87.5181 and 100.972 and 95.3932 and 94.8561 and 105.848 and 103.121 and 97.9815.

For `CN1CC[C@]23c4c5ccc(O)c4O[C@H]2[C@@H](O)C=C[C@H]3[C@H]1C5` [Morphine, morphine], the “values normalised to 1µM DAMGO (individual values)” value reads like this: (1pM ligand) 4.5 and 5.601 and 10.3934 and 7.19 and 9.526 and 7.83 and 4.903 and 6.518 and -2.124 and 4.4986 and 3.206 and 10.9963 and 10.3625 and 3.144 and 12.1183 and 5.101; (10pM ligand) 3.105 and 0.4102 and 8.268 and 8.601 and 3.747 and -0.7087 and 9.445 and 9.5684 and 3.45 and 2.082 and 3.914 and 14.9063 and 6.125 and 10.8447 and 8.643 and 4.027; (100pM ligand) 4.251 and 1.078 and 13.2941 and 4.915 and -1.457 and 4.724 and 2.427 and 7.187 and 11.0478 and 5.511 and 4.484 and 13.2061 and 9.336 and 4.6062 and 14.8476 and -0.08555; (1nM ligand) 4.414 and 12.324 and 9.993 and 4.598 and 16.7467 and 10.1007 and 10.9155 and 17.43 and 10.0266 and 14.5658 and 0.6635.

Values taken from publication PMC9646841, “A bead-based GPCR phosphorylation immunoassay for high-throughput ligand profiling and GRK inhibitor screening” (Communications Biology, 2022).
